# Experimental data published in PubChem BioAssay AID595 (National Center for Advancing Translational Sciences (NCATS), 2007).
# Screen size: about 71,000 compounds; about 310 (0.44%) were called active. The shares of active, inactive and inconclusive entries below differ from those in the screen. The call rests on the fitted dose curve; in most records, active means well fitted curve in either direction with a large enough effect; inconclusive means small, poorly fitted or top-dose-only effect, or another doubt; inactive means flat fitted curve, though single readings scatter. Potencies of inconclusive entries are doubtful fits and often do not repeat.
# Test system: Hsp90 C-terminal peptide / TPR2A (Hop) interaction, human
# Test: qHTS Assay for Disrupters of an Hsp90 Co-Chaperone Interaction
# Conditions: AlphaScreen TPR2A-His6 binding biotin-Hsp90 C-terminal peptide; activity change, negative = inhibition: at 57 µM (top of the series) unless noted
# On the % scale 0 is the no-effect control and ±100 the full control effect; potency means the concentration at half of the fitted maximal effect.
SMILES,Potency,"activity change, negative = inhibition"
CCC1Oc2ccc(C)cc2N(Cc2cccc(C)c2)C1=O (centres undefined),"inconclusive: 25.1 µM [activator, single point]",–
CC(C)NC(=O)Cn1nnc(-c2cccc(NC(=O)c3ccccc3F)c2)n1,–,inconclusive: 44.4%
COc1ccc2c(c1)CCC1[C@@H]2CCC2(C)[C@@H](NCCCCCCN3C(=O)C=CC3=O)CC[C@@H]12 (some centres undefined),–,inactive
CC(=O)Nc1ccc(N2CCN(Cc3ccccc3F)CC2)cc1,–,inactive
CCOC(=O)c1nnn(-c2nc(N3CCCC3)nc(N3CCCC3)n2)c1-c1ccccc1,–,inconclusive: 49.7%
CCOC(=O)c1c(NC(=O)CSc2nnc(Cc3csc(N)n3)n2C)sc(C)c1C,active: 25.1 µM,–
COc1ccc2[nH]cc(CCNc3ccnc(-c4ccccc4C)n3)c2c1,"inconclusive: 31.6 µM [inhibitor, single point]",–
COc1cccc(-c2noc(-c3cccs3)n2)c1,"inconclusive: 31.6 µM [activator, single point]",–
CSc1nncn1/N=C/c1cc(Cl)ccc1F,–,inconclusive: 38.6%
Cc1ccc(-n2c(SCC(N)=O)nnc2-c2ccccn2)cc1,"inconclusive: 31.6 µM [inhibitor, single point]",–
COc1ccc2c(c1OC)C(=O)N1c3cccc(Cl)c3C(=O)OC21 (centres undefined),–,inconclusive: 47.8%
COc1ccc(S(=O)(=O)N2CCSC2c2ccccc2)cc1 (centres undefined),"inconclusive: 25.1 µM [activator, single point]",–
CCN(CC)CCNC(=O)Cc1nn(CC)c(=O)c2ccccc12,–,inactive
O=C(CSc1nnc(COc2ccc(Cl)cc2)o1)OC1CCCCC1,"inconclusive: 31.6 µM [activator, single point]",–
COc1ccc(CCNC(=O)CSc2ncnc3c2oc2ccccc23)cc1OC,–,inconclusive: 39.1%
CCn1c(=O)cc(OCC(=O)N(C)c2ccccc2F)c2ccccc21,–,inconclusive: 44.4%
C/C(=N/NS(=O)(=O)c1ccc(C)cc1)P(=O)(O)O,–,inactive: -2.18% [at 11 µM]
Cc1ccc(C)n1NC(=O)c1ccco1,–,inconclusive: 40.5%
COC(=O)c1cn(C(=O)c2ccco2)c2ccccc12,–,inactive
CCC(C)NC(=O)c1c(N)n(/N=C/c2cccnc2)c2nc3ccccc3nc12 (centres undefined),–,inactive
CCCCC#Cc1nc(NC)c2ncn([C@@H]3O[C@@H](CO)[C@H](O)[C@H]3O)c2n1,–,inactive
COc1ccc(-c2nsc(SCC(=O)Nc3cc(C)on3)n2)cc1,–,inactive
COC(=O)N1CCC2(CCCN(C(=O)Nc3cccc(F)c3)C2)CC1,–,inactive
Nc1ccc(-c2ccc(N)c(O)c2)cc1O,"inconclusive: 39.8 µM [inhibitor, partial curve, poor fit]",–

# Looked up by compound from the entries so far:
SMILES,Potency,"activity change, negative = inhibition"
CCOC(=O)c1c(NC(=O)CSc2nnc(Cc3csc(N)n3)n2C)sc(C)c1C,active: 25.1 µM,–
CCn1c(=O)cc(OCC(=O)N(C)c2ccccc2F)c2ccccc21,–,inconclusive: 44.4%
